Measurements reported in PubChem BioAssay AID504793 (Drosophila RNAi Screening Center, 2011)
The deposit covers about 23,000 reagents; shown is a random part of those that have a named target and a result. Over the whole deposit, 62 (0.27%) are marked active. 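Calls come from follow-up tests whose scores are not deposited, so confirmed genes may have low counts here; counts are not normalised per plate.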 Raw values are not corrected between plates. A plus sign joins genes that one reagent is predicted to hit.

- Test: 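Genes required for cells to halt at G2/M after double-strand DNA breaks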 (primary screen)
- Cells: Drosophila S2R+ cells
- Reagent: long dsRNA against Drosophila genes, about 0.25 µg dsRNA per well
- Duration: 4 days of dsRNA, then 4 hours of drug before read-out
- Treatment: doxorubicin 0.5 µM for 4 hours to cause double-strand breaks, in cells also given a low, harmless dose of dsRNA against nbs to sensitise the assay
- Measurement: 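Mitotic index as the number of phospho-histone H3-positive cells in each well following doxorubicin, given as raw counts without normalisation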
- Reading the numbers: mitotic cells: higher = more cells in mitosis, weaker G2 arrest
- Rule for the call: 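Genes are called active only when high mitotic counts were reproduced with independent dsRNAs and mitosis was checked for delay without damage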
- Calls: active = confirmed in follow-up tests; inactive = not confirmed

mitotic cells, replicate 1 | mitotic cells, replicate 2 | Call | Gene | amplicon
2 | – | inactive | Pih1D1 | DRSC02897
11 | – | inactive | Pih1D1 | DRSC28212
3 | – | inactive | Prosbeta5R2 | DRSC01617
15 | – | inactive | Prosbeta5R2 | DRSC29767
13 | – | inactive | Coq5 | DRSC19849
5 | – | inactive | Coq5 | DRSC21371
4 | – | inactive | Coq5 | DRSC29685
3 | – | inactive | CG3556 | DRSC18309
3 | – | inactive | CG3556 | DRSC27365
19 | – | inactive | upd2 | DRSC19969
2 | – | inactive | upd2 | DRSC24190
10 | 8 | inactive | CG30403 | DRSC03889
3 | – | inactive | CG31819 | DRSC01532
3 | – | inactive | CG31819 | DRSC27735
6 | – | inactive | Alp9 | DRSC10486
4 | – | inactive | CG3337 | DRSC15478
9 | – | inactive | sunn | DRSC21659
6 | – | inactive | L | DRSC06666
14 | – | inactive | L | DRSC06668
3 | – | inactive | L | DRSC29770
6 | – | inactive | atos | DRSC07318
8 | – | inactive | Sgs4 | DRSC18715
6 | – | inactive | Sgs4 | DRSC28964
5 | – | inactive | CG30161 | DRSC22141
6 | – | inactive | CG10171 | DRSC09711
6 | – | inactive | CG10171 | DRSC26279
7 | – | inactive | CG9593 | DRSC16508
17 | – | inactive | CG31099 | DRSC14252
6 | – | inactive | CG31099 | DRSC23973
6 | – | inactive | CG6788 + CR32496 | DRSC22043
10 | – | inactive | dwg | DRSC18766
10 | – | inactive | dwg | DRSC29174
2 | – | inactive | CG7049 | DRSC08587
5 | – | inactive | CG7049 | DRSC26356
4 | – | inactive | CG13962 | DRSC02304
8 | – | inactive | CG13962 | DRSC30042
9 | – | inactive | CG32756 | DRSC23271
8 | – | inactive | CG32756 | DRSC25978
2 | – | inactive | CG30054 | DRSC05354
6 | – | inactive | Dtwd2 | DRSC12501
10 | – | inactive | CG42232 | DRSC15018
7 | – | inactive | CG42232 | DRSC15019
3 | – | inactive | CG42232 | DRSC29868
8 | – | inactive | CG17746 | DRSC08521
6 | – | inactive | CG17746 | DRSC23333
10 | – | inactive | Gr93d | DRSC21941
2 | – | inactive | ND-19 | DRSC04404
4 | – | inactive | ND-19 | DRSC27604
11 | – | inactive | CG7006 | DRSC16169
15 | – | inactive | CG12662 | DRSC17865
4 | – | inactive | Ipk1 | DRSC04235
3 | – | inactive | Ipk1 | DRSC04236
2 | – | inactive | Ipk1 | DRSC04237
2 | – | inactive | CG31633 | DRSC02275
4 | – | inactive | CG31633 | DRSC27022
5 | – | inactive | CG9399 | DRSC16488
9 | – | inactive | Veneno | DRSC16537
5 | – | inactive | DMAP1 | DRSC06044
7 | – | inactive | DMAP1 | DRSC26559
2 | – | inactive | CG5160 | DRSC02821
14 | – | inactive | CG5160 | DRSC28456
4 | – | inactive | Cyp313a2 | DRSC16625
6 | – | inactive | CG15923 | DRSC15129
18 | – | inactive | CG34047 (retired record) | DRSC07857
4 | – | inactive | CG34047 (retired record) | DRSC21689
1 | – | inactive | CG9525 | DRSC03249
8 | – | inactive | AP-2sigma | DRSC15957
6 | – | inactive | inv | DRSC07633
6 | – | inactive | inv | DRSC29580
3 | – | inactive | CG6508 | DRSC02963
12 | – | inactive | kipf | DRSC15446
5 | – | inactive | kipf | DRSC22871
5 | – | inactive | kipf | DRSC29690
9 | – | inactive | Lcp9 | DRSC04287
5 | – | inactive | CG13385 | DRSC02259
8 | – | inactive | Pfdn5 | DRSC16183
3 | – | inactive | RpS2 | DRSC03614
9 | – | inactive | RpS2 | DRSC26760
15 | – | inactive | Dhc98D | DRSC16645
5 | – | inactive | Dhc98D | DRSC27784
6 | – | inactive | Cul3 | DRSC03537
2 | – | inactive | Cul3 | DRSC21525
3 | – | inactive | Cul3 | DRSC26199
3 | – | inactive | Cul3 | DRSC27885
4 | – | inactive | CG17601 | DRSC20639

Entries listed so far whose gene name begins with R or r:
mitotic cells, replicate 1 | mitotic cells, replicate 2 | Call | Gene | amplicon
3 | – | inactive | RpS2 | DRSC03614
9 | – | inactive | RpS2 | DRSC26760

The list goes on:
mitotic cells, replicate 1 | mitotic cells, replicate 2 | Call | Gene | amplicon
5 | – | inactive | CG9663 | DRSC00724
9 | – | inactive | Cpr67Fa2 | DRSC10315
10 | – | inactive | PlexB | DRSC17177
9 | – | inactive | CG4751 | DRSC02776
9 | – | inactive | Mrm2 | DRSC14310
5 | – | inactive | Mrm2 | DRSC27849
5 | – | inactive | sens-2 | DRSC02613
5 | – | inactive | sens-2 | DRSC25026
– | – | inactive | Cpr49Ad | DRSC07284
12 | – | inactive | CSN4 | DRSC07350
7 | – | inactive | vnc + CG42455 | DRSC09867
3 | – | inactive | CG15446 | DRSC20518
19 | – | inactive | Atx2 | DRSC23010
7 | – | inactive | CG4294 | DRSC04460
6 | – | inactive | Mct1 | DRSC18681
3 | – | inactive | Mct1 | DRSC29006
4 | – | inactive | CG43773 | DRSC00287
2 | – | inactive | CG43773 | DRSC00288
5 | – | inactive | CG43773 | DRSC26834
37 | – | active | Rcd1 | DRSC07116
44 | – | active | Rcd1 | DRSC23713
4 | – | inactive | Qsox2 | DRSC15287
3 | – | inactive | Qsox2 | DRSC26634
18 | – | inactive | CG14330 | DRSC14809
1 | – | inactive | r-cup | DRSC20475
4 | – | inactive | pds5 | DRSC06670
7 | – | inactive | CG14304 | DRSC25016
8 | – | inactive | armi | DRSC08193
1 | – | inactive | CG4438 | DRSC02746
8 | – | inactive | CG4438 | DRSC25747
6 | – | inactive | Sirup | DRSC03031
6 | – | inactive | Sirup | DRSC29298
6 | – | inactive | CG1695 | DRSC20538
3 | – | inactive | CG1695 | DRSC25561
6 | – | inactive | scaf | DRSC04849
9 | – | inactive | SPoCk | DRSC11675
3 | – | inactive | SPoCk | DRSC11706
1 | – | inactive | SPoCk | DRSC11844
7 | – | inactive | SPoCk | DRSC11845
11 | – | inactive | SPoCk | DRSC24007
8 | – | inactive | CG17147 | DRSC10249
5 | – | inactive | CG17147 | DRSC29813
3 | – | inactive | sbb | DRSC05723
4 | – | inactive | sbb | DRSC07676
2 | – | inactive | sbb | DRSC28911
4 | – | inactive | EndoGI | DRSC01964
18 | – | inactive | Cdc7 | DRSC18429
7 | – | inactive | Cdc7 | DRSC27819
7 | – | inactive | CG15649 | DRSC04240
6 | – | inactive | CG15649 | DRSC29626
13 | – | inactive | mRpS5 | DRSC21380
8 | – | inactive | vap | DRSC20275
8 | – | inactive | Tsp42En | DRSC06185
5 | – | inactive | Akh | DRSC08138
4 | – | inactive | Akh | DRSC28433
